One test has as its target SALL4 (Homo sapiens, UniProt Q96SW2+Q9UJQ4). Nature of the test: HiBiT degradation assay, KELLY.2 (SALL4-HiBiT) cells. As to conditions: for HiBiT-Degradation KELLY.2 SALL4 6 hours Emax: KELLY.2 cells; for DC50: read-out: HiBiT-Degradation KELLY.2 SALL4 6 hours DC50 nM, KELLY.2 cells.
Another test deals with IKZF1 (Homo sapiens, UniProt Q13422+Q96SW2). The experiment in a line: HiBiT degradation assay, NCIH929.11 (HiBiT-IKZF1) cells. As to conditions: for HiBiT-Degradation NCHI929.11 IKZF1 6 hours Emax: NCHI929.11 cells; for DC50: read-out: HiBiT-Degradation NCHI929.11 IKZF1 6 hours DC50 nM, NCHI929.11 cells.
In the next test the target is GSPT1 (Homo sapiens, UniProt P15170+Q96SW2). Nature of the test: HiBiT degradation assay, 293T.114 cells, GSPT1. As to conditions: for DC50: read-out: HiBiT-Degradation 293T.114 GSPT1 6 hours DC50 nM.
Another test concerns the target CRBN (Homo sapiens, UniProt Q96SW2). Nature of the test: NanoBRET CRBN binding, 293T.116 cells. As to conditions: read-out: NanoBRET 293T.116 CRBN 2 hours IC50 nM.

Protein sequences, listed by entry. Tags and fused reporters are not part of them. Residues count along the entry.
UniProt Q96SW2, whole entry: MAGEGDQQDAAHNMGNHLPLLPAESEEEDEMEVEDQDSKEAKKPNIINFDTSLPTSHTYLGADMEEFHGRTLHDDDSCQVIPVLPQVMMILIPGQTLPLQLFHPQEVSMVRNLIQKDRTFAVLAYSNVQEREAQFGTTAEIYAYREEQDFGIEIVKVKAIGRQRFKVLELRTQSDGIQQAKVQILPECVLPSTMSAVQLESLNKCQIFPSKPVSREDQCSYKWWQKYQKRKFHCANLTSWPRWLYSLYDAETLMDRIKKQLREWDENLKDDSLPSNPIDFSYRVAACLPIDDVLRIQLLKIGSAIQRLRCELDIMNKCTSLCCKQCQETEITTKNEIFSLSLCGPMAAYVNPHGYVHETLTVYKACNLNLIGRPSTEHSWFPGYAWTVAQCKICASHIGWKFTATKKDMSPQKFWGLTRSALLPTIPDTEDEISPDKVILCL
UniProt Q9UJQ4, whole entry: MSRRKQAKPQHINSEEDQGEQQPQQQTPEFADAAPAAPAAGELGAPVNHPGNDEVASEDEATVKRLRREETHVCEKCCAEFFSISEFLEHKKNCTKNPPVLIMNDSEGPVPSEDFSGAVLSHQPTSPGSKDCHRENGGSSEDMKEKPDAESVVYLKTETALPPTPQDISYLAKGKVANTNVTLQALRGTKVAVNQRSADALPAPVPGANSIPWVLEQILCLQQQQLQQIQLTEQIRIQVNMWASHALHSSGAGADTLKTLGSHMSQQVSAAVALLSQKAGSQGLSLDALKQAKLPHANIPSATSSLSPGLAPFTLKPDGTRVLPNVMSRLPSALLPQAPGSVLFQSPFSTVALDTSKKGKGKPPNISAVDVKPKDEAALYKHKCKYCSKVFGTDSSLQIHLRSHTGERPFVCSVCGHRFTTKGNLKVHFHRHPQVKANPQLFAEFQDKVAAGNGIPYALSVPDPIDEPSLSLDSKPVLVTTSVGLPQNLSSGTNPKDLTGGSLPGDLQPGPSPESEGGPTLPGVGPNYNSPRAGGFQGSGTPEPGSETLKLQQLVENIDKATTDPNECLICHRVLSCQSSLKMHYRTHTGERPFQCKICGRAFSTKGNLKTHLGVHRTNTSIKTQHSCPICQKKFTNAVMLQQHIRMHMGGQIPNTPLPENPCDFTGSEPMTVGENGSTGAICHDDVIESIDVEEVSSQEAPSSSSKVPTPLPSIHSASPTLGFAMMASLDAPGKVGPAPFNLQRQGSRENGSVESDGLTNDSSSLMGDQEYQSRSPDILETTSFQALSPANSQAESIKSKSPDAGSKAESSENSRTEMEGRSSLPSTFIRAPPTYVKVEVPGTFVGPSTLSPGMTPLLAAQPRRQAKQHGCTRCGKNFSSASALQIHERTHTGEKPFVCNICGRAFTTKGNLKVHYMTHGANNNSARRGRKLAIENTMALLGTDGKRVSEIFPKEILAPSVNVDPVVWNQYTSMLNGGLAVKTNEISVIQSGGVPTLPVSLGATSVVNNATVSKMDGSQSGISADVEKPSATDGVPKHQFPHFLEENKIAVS
UniProt Q13422, whole entry: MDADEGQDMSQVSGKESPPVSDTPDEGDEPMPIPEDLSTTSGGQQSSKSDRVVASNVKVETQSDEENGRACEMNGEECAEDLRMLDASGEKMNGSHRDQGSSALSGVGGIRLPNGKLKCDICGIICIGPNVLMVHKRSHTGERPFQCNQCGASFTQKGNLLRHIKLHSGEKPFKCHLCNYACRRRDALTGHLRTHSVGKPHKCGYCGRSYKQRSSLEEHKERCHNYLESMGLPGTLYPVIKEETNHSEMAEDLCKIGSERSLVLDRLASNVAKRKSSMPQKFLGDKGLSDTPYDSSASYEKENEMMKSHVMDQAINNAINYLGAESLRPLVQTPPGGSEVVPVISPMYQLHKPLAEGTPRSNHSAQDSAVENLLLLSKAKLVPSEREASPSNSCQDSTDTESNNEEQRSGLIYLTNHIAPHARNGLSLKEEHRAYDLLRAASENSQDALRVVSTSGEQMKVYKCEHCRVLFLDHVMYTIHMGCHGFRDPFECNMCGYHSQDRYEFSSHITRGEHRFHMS
UniProt P15170, whole entry: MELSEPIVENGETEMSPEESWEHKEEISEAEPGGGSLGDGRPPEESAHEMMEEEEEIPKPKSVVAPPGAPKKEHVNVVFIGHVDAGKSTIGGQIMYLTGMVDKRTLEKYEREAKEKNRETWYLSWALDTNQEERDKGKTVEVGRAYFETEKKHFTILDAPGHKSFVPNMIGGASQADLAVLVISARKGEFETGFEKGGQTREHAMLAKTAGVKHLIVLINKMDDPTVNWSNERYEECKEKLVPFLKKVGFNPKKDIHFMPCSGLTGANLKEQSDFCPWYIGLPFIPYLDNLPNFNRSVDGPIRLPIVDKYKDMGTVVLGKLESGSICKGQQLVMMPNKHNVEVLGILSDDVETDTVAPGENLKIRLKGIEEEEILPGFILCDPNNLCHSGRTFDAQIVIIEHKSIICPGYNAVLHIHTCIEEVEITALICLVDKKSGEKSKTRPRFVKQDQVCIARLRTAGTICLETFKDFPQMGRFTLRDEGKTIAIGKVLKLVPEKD
UniProt Q16531, 2-1140 partner limits assumed: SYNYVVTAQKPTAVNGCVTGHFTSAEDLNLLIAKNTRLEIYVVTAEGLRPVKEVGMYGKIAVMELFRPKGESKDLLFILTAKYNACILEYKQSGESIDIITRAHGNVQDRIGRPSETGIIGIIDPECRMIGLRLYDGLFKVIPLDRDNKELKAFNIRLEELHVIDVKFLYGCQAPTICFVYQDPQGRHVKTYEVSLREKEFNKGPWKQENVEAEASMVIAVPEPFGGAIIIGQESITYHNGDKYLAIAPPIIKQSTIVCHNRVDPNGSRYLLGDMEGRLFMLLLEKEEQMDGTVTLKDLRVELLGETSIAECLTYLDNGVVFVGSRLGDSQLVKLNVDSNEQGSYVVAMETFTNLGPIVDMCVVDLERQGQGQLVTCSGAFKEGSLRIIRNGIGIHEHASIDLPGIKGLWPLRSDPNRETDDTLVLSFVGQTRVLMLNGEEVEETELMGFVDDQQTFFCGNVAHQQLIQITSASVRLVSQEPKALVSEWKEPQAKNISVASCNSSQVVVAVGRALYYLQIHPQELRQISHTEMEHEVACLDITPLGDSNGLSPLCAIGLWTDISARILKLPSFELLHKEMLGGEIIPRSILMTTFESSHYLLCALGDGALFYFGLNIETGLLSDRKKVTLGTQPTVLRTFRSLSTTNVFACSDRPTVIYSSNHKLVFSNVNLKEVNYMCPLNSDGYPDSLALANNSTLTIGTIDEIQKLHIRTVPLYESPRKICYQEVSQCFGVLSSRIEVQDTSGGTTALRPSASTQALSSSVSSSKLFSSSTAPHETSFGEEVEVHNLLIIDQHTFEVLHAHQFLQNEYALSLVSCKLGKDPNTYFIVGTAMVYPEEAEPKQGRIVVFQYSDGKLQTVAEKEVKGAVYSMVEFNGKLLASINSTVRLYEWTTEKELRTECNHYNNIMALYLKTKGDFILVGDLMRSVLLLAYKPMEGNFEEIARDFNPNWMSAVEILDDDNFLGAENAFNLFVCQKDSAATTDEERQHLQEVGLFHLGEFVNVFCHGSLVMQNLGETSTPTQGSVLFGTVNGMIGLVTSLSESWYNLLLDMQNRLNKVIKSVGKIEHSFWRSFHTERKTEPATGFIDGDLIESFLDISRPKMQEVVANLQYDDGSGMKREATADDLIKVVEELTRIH

Structures were worked out from names or drawings and are uncertain. Where only a bound is given, the exact number is not on record here.

In the case of `CC(C)(C)OC(=O)N1CCC(C)(n2cc(C(=O)c3ccc4c5c(cccc35)C(=O)N4C3CCC(=O)NC3=O)cn2)CC1` (stereo not shown), at SALL4, the “HiBiT-Degradation KELLY.2 SALL4 6 hours Emax” value is “++++ (<45% = ++++)” and the DC50 was below 100 nM. Further, at IKZF1, the “HiBiT-Degradation NCHI929.11 IKZF1 6 hours Emax” value is “++++ (<45% = ++++)” and the DC50 was below 100 nM. Moreover, on GSPT1, the “HiBiT-Degradation 293T.114 GSPT1 6 hours Emax” value is “++ (60-95% = ++)” and the DC50 is above 10000 nM.
`Cc1ccc(F)c(CNCc2ccc3c4c(cccc24)N(C2CCC(=O)NC2=O)C3=O)c1` (stereo not shown): at SALL4, the “HiBiT-Degradation KELLY.2 SALL4 6 hours Emax” value is recorded as “++++ (<45% = ++++)” and the DC50 is below 100 nM. On IKZF1, the “HiBiT-Degradation NCHI929.11 IKZF1 6 hours Emax” value is recorded as “+++ (45-60% = +++)” and the DC50 lay within 1000 to 10000 nM. Also, at GSPT1, the “HiBiT-Degradation 293T.114 GSPT1 6 hours Emax” value was “++ (60-95% = ++)” and the DC50 is above 10000 nM. Further, the 50% inhibitory concentration (IC50) on CRBN is below 100 nM.

The values above are taken from US20240018118A1, “TRICYCLIC COMPOUNDS TO DEGRADE NEOSUBSTRATES FOR MEDICAL THERAPY” (C 4 Therapeutics, Inc., priority 2020, published 2024).
